In experiment [1] the target is pleurotolysin A2 (PlyA2) (P. eryngii). Briefly: SPR; large unilamellar vesicles of CPE/POPC/cholesterol (5/47.5/47.5) immobilised on a Biacore L1 chip to ~7000 RU; aegerolysin (0.25 uM OlyA6 or PlyA2, 5 uM EryA) injected alone or together with PlyB (molar ratio 12.5/1), 10 uL/min, 25 °C, 20 mM Tris, 140 mM NaCl, 5 uM EDTA, pH 7.4; the two proteins meet on the lipid membrane; both purified. Background: Surface plasmon resonance follows binding to a sensor surface in real time, without labels.

Experiment [2] concerns the target erylysin A (EryA) (P. eryngii) (UniProt D0FZZ2). The experiment is described as above.

Results are given in words; binding and its absence hold for the method and conditions named. Binding can be weak; no strength is given.

B1: Δ48PlyB (pleurotolysin B) (domain or fragment, UniProt Q5W9E8 49-523)
chain: SQAGDTLNDVIQDPTRRNKLINDNNLLKGIIMGRDGPVPSSRELIVRPDTLRAIINNRATIETTTMEAEFTETLMESNYNSASVKVSAPFITANSEYSESSSFKNTETEKSMYTSSRYLFPQGRIDFTTPDSGFDDVIKLSPQFTSGVQAALAKATGTEKREALQNLFQEYGHVFRTKVHIGGVLSAHTMETFSRSENETEVKQDVKAGLEGAVKGWGGGATAGHGNTQGTITTSQNRKLNVKYIVNGGDYTKIQNTEEWVASTNQSEHWRVIEVTEVTAVADLLPQPIRGQVKDLLKPLLGKWVDVEKVPGLESLPVSVYRPKGAIPAGWFWLGDTADASKALLVKPTLPARSGRNPALTSLHQGSGMTEQPFVDLPQYQYLSTYFGSFAHDTPPGSTLRGLRPDHVLPGRYEMHGDTISTAVYVTRPVDVPFPEDECFDLKSLVRVKLPGSGNPPKPRSALKKSMVLFDSGEK
For the molecule B1, the binding entry in experiment [1] and in experiment [2] was “binds” throughout.

(Values after paper PMC6433908.)
